Source: PMC7819943, “Rice protein-binding microarrays: a tool to detect cis-acting elements near promoter regions in rice”
The list shows a part of the results.

molecular target: T1, OsSMF1 (Oryza sativa, UniProt Q6ZLB0 1-436); test: protein-binding microarray (RPBM); PBS, 2% BSA, 51.3 ng/ul salmon testes DNA, 50 uM zinc acetate, 200 nM TF, 25 C, 1 h; high values mean tight binding; settings: protein: recombinant; tags: N-terminal polyhistidine and DsRed monomer fusion (pET32a); chain copies: 2; label: CyDye5-dUTP incorporated in the synthesized complementary strand; 3' TTTTT single-stranded linker to array surface; dsDNA, one strand shown
T1 sequence: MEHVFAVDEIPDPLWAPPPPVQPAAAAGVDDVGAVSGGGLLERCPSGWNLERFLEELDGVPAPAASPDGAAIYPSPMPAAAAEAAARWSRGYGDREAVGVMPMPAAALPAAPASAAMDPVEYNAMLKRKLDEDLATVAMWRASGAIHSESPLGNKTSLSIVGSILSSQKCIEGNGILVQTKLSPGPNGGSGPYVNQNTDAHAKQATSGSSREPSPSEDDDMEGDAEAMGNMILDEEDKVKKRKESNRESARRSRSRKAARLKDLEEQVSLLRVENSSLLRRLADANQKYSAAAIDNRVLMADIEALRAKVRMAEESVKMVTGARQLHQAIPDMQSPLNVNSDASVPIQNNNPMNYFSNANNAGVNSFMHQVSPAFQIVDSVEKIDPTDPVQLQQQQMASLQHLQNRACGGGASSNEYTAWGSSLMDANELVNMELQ
In short: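 The binding signal is fluorescence intensity per feature, in arbitrary units, read on an Axon 4000B scanner. Polyhistidine- and DsRed-tagged transcription factors (N-terminal fusions) from E. coli BL21-CodonPlus were purified on Ni–NTA and applied at 200 nM for 1 h at 25 °C to a double-stranded, BSA-blocked custom Agilent array in buffer with 50 µM zinc acetate.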

Compared with “TTCATATAGATTTTATTGAATCTTAACGCACATATATATACGGAGTCACCTAGTGCAG”, “TTGTTTCCTACGTACGACGATGACGAGTCCACTCGGAATACGGAGTCACCTAGTGCAG” is lower in binding signal: 22200 fluorescence intensity (a.u.) for the first, 4150 fluorescence intensity (a.u.) for the second.

Going from “CGTGATACGCTTAATATTACTAGCGTCAGCCTTGCTGTCACGGAGTCACCTAGTGCAG” to “CTTAAGGGTGGATCTGACAATGGTAGCGACACTTGCATCACGGAGTCACCTAGTGCAG”, the binding signal falls from 5340 fluorescence intensity (a.u.) to 3180 fluorescence intensity (a.u.).

Compared with “ACTGTAGCTAATCCAGTTTTAAATTAAAGGACGTGTTTTACGGAGTCACCTAGTGCAG”, “TTGATTTCTTCCTCTGCGAGTCCACTCCCAGTCCAGGGTCCGGAGTCACCTAGTGCAG” is lower in binding signal: 8680 fluorescence intensity (a.u.) for the first, 4240 fluorescence intensity (a.u.) for the second.

First: CAAAGAGCCCTGTTATGTTGACTGGTGCACAGTGTCATCACGGAGTCACCTAGTGCAG
Second: CATTGGTGGCGTAATGTGGTTGTTAGTGATTTGTTGCACCCGGAGTCACCTAGTGCAG
The binding signal of the first is higher: 3890 fluorescence intensity (a.u.) for the first, 3460 fluorescence intensity (a.u.) for the second.

Compared with “CATGAATACAAAAGAACAGTTATTTAGACAGGTGTAAATACGGAGTCACCTAGTGCAG”, “GTACGGATATAGCACTAGTTGTCAGCAACCACTCAACCGGCGGAGTCACCTAGTGCAG” is lower in binding signal: 30100 fluorescence intensity (a.u.) for the first, 3360 fluorescence intensity (a.u.) for the second.

Going from “ACTAACATGTCACGTAATTTCAATAAGCAAGATAGTAATACGGAGTCACCTAGTGCAG” to “AAACCCACTCCACCACACGGGTCGACTCGACTCCCACTCGCGGAGTCACCTAGTGCAG”, the binding signal falls from 33000 fluorescence intensity (a.u.) to 5910 fluorescence intensity (a.u.).

Going from “CTACATAATATTATTAATTTGTGTGCGAAACTGCATGTGGCGGAGTCACCTAGTGCAG” to “GGAATTGCGTGATTGAATTCAAAATTGGGATGATAAATATCGGAGTCACCTAGTGCAG”, the binding signal rises from 3840 fluorescence intensity (a.u.) to 5320 fluorescence intensity (a.u.).

Compared with “AAGAAGGCCCGTCTAGCTCAGTCGGTAGAGCGCAAGGCTCCGGAGTCACCTAGTGCAG”, “GCCAGCGTGGTAGTCTGGCAGGCATAGTATATTCGATTTGCGGAGTCACCTAGTGCAG” is lower in binding signal: 35100 fluorescence intensity (a.u.) for the first, 24800 fluorescence intensity (a.u.) for the second.

Going from “GCAGCATCTGTGATCTCTCAGTGGGACCCACGTGTCATTGCGGAGTCACCTAGTGCAG” to “TTGACCATCGGCCACACGTGTGTGGGTGCGTGCGTGCGTGCGGAGTCACCTAGTGCAG”, the binding signal rises from 5010 fluorescence intensity (a.u.) to 6830 fluorescence intensity (a.u.).

Going from “GCCAGGCAGGGGAGGGTCGTTAAGTAGCATCCCATGTCACCGGAGTCACCTAGTGCAG” to “AAACCTCTCTAACATTACCCTGTCAGTTATTGTCAGGCCCCGGAGTCACCTAGTGCAG”, the binding signal falls from 3940 fluorescence intensity (a.u.) to 3510 fluorescence intensity (a.u.).

Compared with “TACGGCATGAATGACATAACGCTGTCGACAATTGACCTGCCGGAGTCACCTAGTGCAG”, “CTGCCGCCCTGCACACACATGCACATTGGCACGAGCTTAGCGGAGTCACCTAGTGCAG” is higher in binding signal: 3740 fluorescence intensity (a.u.) for the first, 3880 fluorescence intensity (a.u.) for the second.

First: ACATTTTGCGTGCGTGGAGAGAAGCACTAATACACCATTACGGAGTCACCTAGTGCAG
Second: TTTGGGTGCTAGCCGCGCAATTGTGCGCGCCACCCAACTACGGAGTCACCTAGTGCAG
The binding signal of the first is lower: 3840 fluorescence intensity (a.u.) for the first, 32900 fluorescence intensity (a.u.) for the second.

Compared with “GTTCGTAAGACGTGGATCTGAATGTCAACATTGTCGTTTGCGGAGTCACCTAGTGCAG”, “TAGCTGAGTGACACCTCACCGTTTGGTTTTCACCCTCCCACGGAGTCACCTAGTGCAG” is higher in binding signal: 6070 fluorescence intensity (a.u.) for the first, 8070 fluorescence intensity (a.u.) for the second.

Compared with “TTGCGTCGTCGGTGGCGTCACTGCCACACCCACCCACCCGCGGAGTCACCTAGTGCAG”, “ATCGCTTAAAATTTCGCAAATTAAGGGTGTGTACGTGTGTCGGAGTCACCTAGTGCAG” is lower in binding signal: 8080 fluorescence intensity (a.u.) for the first, 3780 fluorescence intensity (a.u.) for the second.

Compared with “GTCTAAACACAGTCACCTTTGCTGATTATTGTTATAAGTCCGGAGTCACCTAGTGCAG”, “GAGGTTCAAGTGGAGTGGTGTGGTGGAGGTGGAGCTGGTGCGGAGTCACCTAGTGCAG” is lower in binding signal: 4060 fluorescence intensity (a.u.) for the first, 3880 fluorescence intensity (a.u.) for the second.

First: TCCCTAAACTTGTCATGTGTGTCATATAGGTCCTAACCGGCGGAGTCACCTAGTGCAG
Second: GAGGTCGCCCCTTTTCCCCTCCATACCATCGAGCTCTCCGCGGAGTCACCTAGTGCAG
The binding signal of the first is lower: 5100 fluorescence intensity (a.u.) for the first, 11500 fluorescence intensity (a.u.) for the second.

Going from “TAGTACTTGCTCTACGAGAGATAGGGTCCATAATCTTCTACGGAGTCACCTAGTGCAG” to “CATCTGATCCTCTCCACTTGCATGCACTTTCTGACTGTAGCGGAGTCACCTAGTGCAG”, the binding signal rises from 3290 fluorescence intensity (a.u.) to 3420 fluorescence intensity (a.u.).

Compared with “GATATGCCTATGTTGAACTTGTGCCCTTCGACAAGCCTCACGGAGTCACCTAGTGCAG”, “TGCCACATACTTATTGATGATGTGTCATGATTGCATGGGACGGAGTCACCTAGTGCAG” is higher in binding signal: 3200 fluorescence intensity (a.u.) for the first, 10400 fluorescence intensity (a.u.) for the second.

Going from “ACTTTTCCGTCACATCGTTTTAATTTCTTTAAACTTTTAACGGAGTCACCTAGTGCAG” to “GGTAATCCGCAAGGCCCACGACGACTCCGTGAGGGCTTGTCGGAGTCACCTAGTGCAG”, the binding signal falls from 4680 fluorescence intensity (a.u.) to 3490 fluorescence intensity (a.u.).

First: CCCTGGGGACGTTCGCGGGCTATCTCGTTGATAAATTGGGCGGAGTCACCTAGTGCAG
Second: CATGAACGTGATCACCAAGGTCTCCCTCAACCACGGCATGCGGAGTCACCTAGTGCAG
The binding signal of the first is higher: 28700 fluorescence intensity (a.u.) for the first, 3180 fluorescence intensity (a.u.) for the second.

Compared with “GTATAGACTATAGATGCAGTACTACACAAGACACGTATGACGGAGTCACCTAGTGCAG”, “AGCCACGTCACGAAAATCGCCCTCTCAGAGGGCGGCGGGCCGGAGTCACCTAGTGCAG” is higher in binding signal: 4920 fluorescence intensity (a.u.) for the first, 17000 fluorescence intensity (a.u.) for the second.
